These are yes or no findings as the source states them, for the method shown. Binding calls can cover weak binding; strength is not graded here. For part of these data: Binding seen in cells or lysates may run through a third protein.
Assays:
[1] = molecular target: Pba3-Pba4-FLAG-6His (chaperone from yeast cells) (S. cerevisiae (endogenous in yeast cells) | S. cerevisiae); assay: co-IP; tandem affinity purification of Pba4-FLAG-6His from yeast extracts (WT, ump1Δ) on Ni-NTA and then anti-FLAG resin, 50 mM Tris-HCl pH 7.4, 150 mM NaCl, 4 °C, elution with FLAG peptide; SDS-PAGE and immunoblots for FLAG, α5, α6, α7
[2] = molecular target: Pba3-Pba4-HA (recombinant heterodimeric chaperone) (S. cerevisiae); assay: native gel or EMSA; 20 μg of proteins purified from E. coli mixed (added in sequence to Pba3-Pba4) in 100 μL 26S buffer with SENP1, 90 min, 4 °C, no washing; native PAGE and immunoblot with anti-α5 and anti-FLAG; both purified
[3] = molecular target: Pba3-Pba4-HA (recombinant heterodimeric chaperone) (S. cerevisiae); assay: co-IP; Pba3-Pba4-HA held on HA-resin; 50 μg purified test proteins added with SENP1 in 1 mL binding buffer (50 mM Tris-HCl pH 7.4, 150 mM NaCl, 5 mM EDTA, 1% Triton X-100), 1 h, 4 °C; three washes; elution with HA peptide; SDS-PAGE and Western blot; both purified

B1: proteasome subunit α5 (Pup2), from yeast cells (protein, UniProt P32379 1-260)
chain: MFLTRSEYDRGVSTFSPEGRLFQVEYSLEAIKLGSTAIGIATKEGVVLGVEKRATSPLLESDSIEKIVEIDRHIGCAMSGLTADARSMIEHARTAAVTHNLYYDEDINVESLTQSVCDLALRFGEGASGEERLMSRPFGVALLIAGHDADDGYQLFHAEPSGTFYRYNAKAIGSGSEGAQAELLNEWHSSLTLKEAELLVLKILKQVMEEKLDENNAQLSCITKQDGFKIYDNEKTAELIKELKEKEAAESPEEADVEMS
**Q.** Which binding [1] does the source give for B1 here?
**A.** binds

B2: proteasome subunit α5 (Pup2), recombinant (protein, UniProt P32379 1-260)
chain: MFLTRSEYDRGVSTFSPEGRLFQVEYSLEAIKLGSTAIGIATKEGVVLGVEKRATSPLLESDSIEKIVEIDRHIGCAMSGLTADARSMIEHARTAAVTHNLYYDEDINVESLTQSVCDLALRFGEGASGEERLMSRPFGVALLIAGHDADDGYQLFHAEPSGTFYRYNAKAIGSGSEGAQAELLNEWHSSLTLKEAELLVLKILKQVMEEKLDENNAQLSCITKQDGFKIYDNEKTAELIKELKEKEAAESPEEADVEMS
**Q.** B2 was tested. Which binding [2] did it give?
**A.** binds

**Q.** And the binding [3]?
**A.** binds

Reference: publication PMC12109424
